Reference: PubChem BioAssay AID686938 (Drosophila RNAi Screening Center, 2013)
Test: 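Fly genes required for calcium entry once internal stores are emptied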 (primary screen). Cells: Drosophila S2R+ cells. Reagent: long dsRNA against Drosophila genes, about 0.25 µg dsRNA per well, roughly 10,000 cells. Time to read-out: 5 days of knock-down before the calcium assay. Treatment: thapsigargin (SERCA pump blocker) to empty calcium stores; entry signal taken 4 min after adding it. Read-out: 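Duplicate raw fluo-4 intensities per well from a plate reader, at rest and four minutes after thapsigargin emptied calcium stores; entry-to-rest ratio filled for only some wells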. Direction: calcium entry signal: higher = stronger calcium signal after store depletion; entry to resting ratio: higher = more calcium entry relative to resting level; resting calcium signal: higher = higher resting calcium signal. Active means: 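Called when the plate z-score of the entry-to-rest ratio, mean of duplicates, falls below −3; wells with low overall dye signal (Fmax z below −2) or more than five off-targets excluded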. Meaning of the calls: active = strongly reduced calcium entry; inactive = no strong reduction.
In all, the deposit lists about 23,000 reagents; below is an unselected part of those that have a named target and a result. Of all reagents, 75 (0.33%) got an active call. 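Raw plate signals without normalisation; calls rest on plate z-scores that were not deposited; ratio present for only 364 wells.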 The numbers tell different reagents against one gene apart. Not stated in the record: the dose of the treatment.

Gene,dsRNA no.,"calcium entry signal, replicate 1 (fluorescence units)","calcium entry signal, replicate 2 (fluorescence units)",entry to resting ratio,"resting calcium signal, replicate 1 (fluorescence units)","resting calcium signal, replicate 2 (fluorescence units)",activity call
CG16854,1,3.46e7,5.30e7,,1.71e7,2.14e7,inactive
Ube3a (Ubiquitin protein ligase E3A),1,4.62e7,2.72e7,,2.86e7,1.29e7,inactive
CG15345 (retired record),1,3.12e7,5.18e7,,1.73e7,2.62e7,inactive
CG15345 (retired record),2,3.04e7,2.98e7,,1.69e7,1.36e7,inactive
Phm (Peptidylglycine-alpha-hydroxylating monooxygenase),1,3.51e7,,,1.71e7,,inactive
CG5199,1,2.39e7,4.07e7,,1.10e7,1.67e7,inactive
CG42537,1,2.84e7,2.84e7,,1.41e7,1.52e7,inactive
Gpat4 (Glycerol-3-phosphate acyltransferase 4),1,4.29e7,,,2.02e7,,inactive
CG5697,1,5.70e7,4.76e7,,4.54e7,2.15e7,inactive
CG30391,1,3.52e7,3.06e7,,2.02e7,1.43e7,inactive
Der-2 (Derlin-2),1,3.32e7,5.07e7,,1.76e7,6.57e7,inactive
CG8197,1,3.38e7,3.61e7,,1.55e7,1.71e7,inactive
CG34396,1,3.86e7,5.05e7,,1.95e7,2.28e7,inactive
CG34396,2,4.66e7,4.60e7,,2.35e7,2.09e7,inactive
Sf3b6 (Splicing factor 3b subunit 6),1,2.95e7,2.15e7,,1.74e7,1.22e7,inactive
CG6729,1,4.25e7,3.51e7,,1.84e7,1.55e7,inactive
CG6729,2,3.69e7,3.68e7,,1.86e7,1.82e7,inactive
Shmt (Serine hydroxymethyl transferase),1,3.27e7,4.56e7,,1.54e7,2.05e7,inactive
CG8435,1,2.09e7,2.07e7,,1.23e7,1.25e7,inactive
CG4830,1,2.05e7,2.37e7,,1.22e7,1.34e7,inactive
CG42355,1,2.89e7,2.87e7,,1.58e7,1.42e7,inactive
CG11149,1,3.01e7,3.09e7,,1.44e7,1.53e7,inactive
Rsbp15 (Radial spoke binding protein 15),1,1.89e7,2.43e7,,1.07e7,1.17e7,inactive
CG14627,1,4.32e7,4.54e7,1.8,2.45e7,2.38e7,inactive
